Laboratory results published in patent US20130344070A1.
Positions count from the first letter of the chain named. No constants are given. Whether binding was seen depends on the method and setting. Some entries that bind do so weakly or less than the wild type.

The chains behind the UniProt entries cited, without tags or fusion partners.
UniProt P41597: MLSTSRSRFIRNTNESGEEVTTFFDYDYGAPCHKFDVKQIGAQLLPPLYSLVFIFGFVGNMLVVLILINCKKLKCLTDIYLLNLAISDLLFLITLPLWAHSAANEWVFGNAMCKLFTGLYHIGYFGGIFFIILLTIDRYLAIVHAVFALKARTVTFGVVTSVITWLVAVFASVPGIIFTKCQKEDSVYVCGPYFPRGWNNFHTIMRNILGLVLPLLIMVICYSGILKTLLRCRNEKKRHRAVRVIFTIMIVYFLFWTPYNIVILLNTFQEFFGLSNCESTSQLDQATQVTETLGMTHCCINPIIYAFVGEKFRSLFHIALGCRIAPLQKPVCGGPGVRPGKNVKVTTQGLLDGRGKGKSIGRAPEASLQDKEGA

B1: D1-3/LO (antibody, V domains shown)
VH: QVQLVQSGAEVKKPGASVKVSCKASGYTFTGYHMHWVRQAPGQGLEWMGWINPNSGVTKYAQKFQGRVTMTRDTSTSTVYMELSSLRSEDTAVYYCATGSGGGTMDVWGEGTLVTVSS
VL: LPVLTQPPSVSKGLRQTATLTCTGNSNNVGNQGAAWLQQHQGQPPKLLSYRNHNRPSGVSERFSPSRSGDTSSLTITGLQPEDEADYYCLAWDSSLRAFVFGTGTKLTVL
B2: D1-5/LO (antibody, V domains shown)
VH: QVQLVQSGAEVKKPGASVKVSCKASGYTFTGYHMHWVRQAPGQGLEWMGWINPNGGVTSYAQKFQGRVTMTRDTSTSTVYMELSSLRSEDTAVYYCATGGFGYWGEGTLVTVSS
VL: B1 VL
B3: D1-8/LO (antibody, V domains shown)
VH: B1 VH with W50I, N54S, S55G, V57S, K59S
VL: B1 VL
B4: 42D4 (antibody, V domains shown)
VH: EVQLVESGGELVQPGGSLRLSCAASGFTFSSFAMHWVRQAPGKGLEYVSGISSNGGSTYYANSVKGRFTISRDNSKNTLSLQMGSLRPEDMAVYYCARGGMDVWGQGTTVTVSS
VL: QSVLTQPPSVSKGLRQTATLTCTGNSNNVGNQGAAWLQQHQGHPPKLLSYRNHNRPSGISERFSASTSGSTASLTIVGLQPEDEADYYCLAWDTSLHAFVFGSGTKLTVL
B5: 42E8 (antibody, V domains shown)
VH: QVQLVQSGAEVKKPGASVKVSCKAYGYTFTNYYLHWVRQAPGQGLEWMGIINPSGGNTNYAQKFKGRVTMTRDTSTNTVYMEMSSLRSEDTAVYYCARGGGGAFDIWGQGTMVTVSS
VL: DIVMTQSPLSSPVTLGQPASISCRSSQSLVHSDGNTYLSWLQQRPGQPPRLLIYRTSKRFSGVPDRFSGSGSGTDFTLKISRVEVEDVGVYYCMQATQFPRTFGQGTKVEIK
B6: 42F1 (antibody, V domains shown)
VH: QLVESGGDLVQPGGFLRLSCAASGFTFSSYSMNWVRQAPGKGLEWVANIKQDGSEKYYVDSVKGRFTISRDNAKNSLYLQMNSLRAEDTAVYYCARAPGSYWGQGTLVTVSS
VL: QSVVTQPPSVSAAPGQKVTIACSGSSSNIGTHYTSWYQQLPGAAPKLLIYGSSKRPSGIPDRFSGSKSGTSATLGITGLQTGDEAEYYCATWDSRLNVGVFGGGTKLTVL
B7: 43F12 (antibody, V domains shown)
VH: QVQLVESGGGLVQPGRSLRLSCAASGFSFDDYAMHWVRQAPGKGLEWVSLIYSGGKTYYADSVKGRFTISRDSSKNTLYLQMNTLRPEDTAVYYCARNIGNWGQGTLVTVSS
VL: QSVLTQPPSVSKDLRQTATLTCTGNSNNVGNQGAAWLQQHQGHPPKFLSDRYNNRPSGISERFSASRSGNTASLTITGVQPEDEADYYCSAWDTSLNALVFGGGTKLTVL
B8: 55E4 (antibody, V domains shown)
VH: EVQLVESGAEVKKPGASVKVSCKASGYTFTSYYMHWVRQAPGRGLEWMGIINPSSGSTSYAQKFQGRVTMTRDTSTSTVYMELSSLRSEDTAVYYCARGQGTAIRAFDIWGQGTMVTVSS
VL: DIVMTQTPLSSPVTLGQPAAISCRSSQSLVNSDGNTYLSWLQQRPGQPPRVLINKVSNRLSGVPDRFSGSGAGTDFTLKISRVEAEDVGVYYCMQATEFPWTFGQGTRLEIK
B9: 55F5 (antibody, V domains shown)
VH: B8 VH with E6Q
VL: DVVMTQSPLSSPVTLGQPASISCKSSQTLVHNDGNSYLSWLHQRPGQPPRLLIYKVSNRFSGVPDRFSGSGAGTDFTLRIGRVEAEDVGVYYCMQATQFPYTFGQGTKLEIK

Molecular target: human CCR2 (CC-Chemokine Receptor 2) (human) (UniProt P41597)
Test: flow cytometry on CHO-huCCR2 cells, antibody at 5, 10 and/or 20 ug/ml

binding, binds:
B1
B2
B3
B4
B5
B6
B7
B8
B9
